Source: patent publication US7854918B2 (Nihon Medi-Physics Co., Ltd., priority 2004, dated 2010)

Experiment: general procedure: Boc solid-phase peptide synthesis; MBHA resin
Conditions: whole synthesis, 220 nm, area percentage

formyl-Nle-Leu-Phe-Nle-Tyr-Lys(NH2)-ε(-Ser-D-Arg-Asp-Cys-Asp-Asp) (LLFLYKSRDCDD; N-formyl, Nle, D-residue, branched Lys linkage; chemically synthesized metal chelating peptide)
final HPLC purity: 93.2%
